Measurements published in the M2OR odorant receptor database.
Residue numbers refer to the chain shown, from its start. The list shows a part of the results. Calls are pooled over several reports, among them a noisy single-well screen.

Chains of the proteins cited; added tags and fusions are not shown. Chains listed by the source or under a name are the forms on record and can include a tag or linker.
O51V1, as listed by the source: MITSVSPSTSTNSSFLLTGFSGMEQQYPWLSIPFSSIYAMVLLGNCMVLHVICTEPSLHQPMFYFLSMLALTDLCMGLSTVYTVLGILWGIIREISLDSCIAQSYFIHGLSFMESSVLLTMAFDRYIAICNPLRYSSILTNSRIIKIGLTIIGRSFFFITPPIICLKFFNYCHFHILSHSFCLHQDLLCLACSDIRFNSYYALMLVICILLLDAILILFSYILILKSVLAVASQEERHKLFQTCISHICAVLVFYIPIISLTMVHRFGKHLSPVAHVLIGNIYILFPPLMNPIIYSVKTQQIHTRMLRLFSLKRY
O51L1, as listed by the source: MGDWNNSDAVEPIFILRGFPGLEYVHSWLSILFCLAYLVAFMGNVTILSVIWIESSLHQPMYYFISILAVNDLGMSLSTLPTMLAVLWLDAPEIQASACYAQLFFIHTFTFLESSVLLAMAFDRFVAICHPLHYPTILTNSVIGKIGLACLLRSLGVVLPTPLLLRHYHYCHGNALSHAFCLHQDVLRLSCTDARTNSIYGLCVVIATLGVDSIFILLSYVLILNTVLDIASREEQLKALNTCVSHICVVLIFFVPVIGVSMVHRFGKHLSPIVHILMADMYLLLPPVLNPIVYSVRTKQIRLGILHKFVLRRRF

What was measured:
Settings in all cases: stereoisomer not certain
O51G1 = test system: T1, O51G1
T1 sequence (whole entry): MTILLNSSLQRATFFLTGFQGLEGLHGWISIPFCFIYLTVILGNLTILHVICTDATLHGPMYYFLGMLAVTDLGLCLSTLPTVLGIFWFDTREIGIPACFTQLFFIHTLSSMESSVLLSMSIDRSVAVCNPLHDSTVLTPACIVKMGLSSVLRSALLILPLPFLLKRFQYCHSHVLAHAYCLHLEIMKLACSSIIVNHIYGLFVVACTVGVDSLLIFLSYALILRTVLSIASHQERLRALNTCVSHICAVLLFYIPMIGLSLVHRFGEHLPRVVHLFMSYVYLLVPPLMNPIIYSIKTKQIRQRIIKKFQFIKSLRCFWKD
Procedure, shortened: (§1)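 Whether a receptor–molecule pair is responsive (active) rests on the original authors' judgment that its measured signal was statistically different from baseline. Pairs without that judgment are non-responsive (inactive). Sources used varied assay methods, commonly transient luciferase assays in mammalian cell lines.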

O51G2 = test system: T2, O51G2
T2 sequence (whole entry): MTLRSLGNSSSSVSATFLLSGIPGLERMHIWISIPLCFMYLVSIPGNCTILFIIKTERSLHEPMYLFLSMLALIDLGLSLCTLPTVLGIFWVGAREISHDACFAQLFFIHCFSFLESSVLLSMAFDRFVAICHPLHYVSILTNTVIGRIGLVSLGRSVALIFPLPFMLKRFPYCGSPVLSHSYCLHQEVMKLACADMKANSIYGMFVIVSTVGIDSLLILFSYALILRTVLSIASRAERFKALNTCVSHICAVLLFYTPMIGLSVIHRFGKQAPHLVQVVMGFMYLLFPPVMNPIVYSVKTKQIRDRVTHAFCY
Procedure, shortened: as §1

O51J1 = test system: T3, O51J1
T3 sequence (whole entry): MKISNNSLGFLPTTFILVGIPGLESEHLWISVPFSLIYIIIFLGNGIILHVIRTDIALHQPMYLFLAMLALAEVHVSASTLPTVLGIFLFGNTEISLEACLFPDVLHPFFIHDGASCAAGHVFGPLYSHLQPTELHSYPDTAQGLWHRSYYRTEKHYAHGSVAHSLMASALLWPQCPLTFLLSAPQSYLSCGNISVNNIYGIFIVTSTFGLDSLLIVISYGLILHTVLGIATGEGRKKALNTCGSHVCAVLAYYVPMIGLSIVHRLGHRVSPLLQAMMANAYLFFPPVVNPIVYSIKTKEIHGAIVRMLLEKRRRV
Procedure, shortened: as §1

O51L1 [1] = test system: T4, O51L1
T4 sequence (whole entry): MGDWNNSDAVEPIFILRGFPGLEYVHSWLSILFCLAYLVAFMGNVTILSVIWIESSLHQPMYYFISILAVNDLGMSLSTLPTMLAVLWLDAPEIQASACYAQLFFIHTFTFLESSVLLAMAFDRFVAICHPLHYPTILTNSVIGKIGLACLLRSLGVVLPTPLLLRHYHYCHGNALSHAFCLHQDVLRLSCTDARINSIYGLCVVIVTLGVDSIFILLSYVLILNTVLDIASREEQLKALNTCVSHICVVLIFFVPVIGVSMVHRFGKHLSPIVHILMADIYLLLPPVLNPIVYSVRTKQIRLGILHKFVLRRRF
Procedure, shortened: as §1

O51L1 [2] = test system: T5, O51L1; remark: listed apart in the source
T5 sequence (whole entry): T4 sequence (whole entry) with I196T, V207A, I281M
Procedure, shortened: as §1

O51M1 = test system: T6, O51M1
T6 sequence (whole entry): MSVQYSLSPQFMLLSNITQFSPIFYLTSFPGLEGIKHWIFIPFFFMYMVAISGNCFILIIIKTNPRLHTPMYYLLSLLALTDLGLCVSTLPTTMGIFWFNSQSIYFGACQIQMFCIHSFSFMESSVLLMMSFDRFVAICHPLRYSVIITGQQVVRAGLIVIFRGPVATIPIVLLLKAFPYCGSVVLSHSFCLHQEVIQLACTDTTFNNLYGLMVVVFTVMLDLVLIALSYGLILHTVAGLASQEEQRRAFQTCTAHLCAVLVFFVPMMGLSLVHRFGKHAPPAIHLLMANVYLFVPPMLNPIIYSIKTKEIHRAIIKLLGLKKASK
Procedure, shortened: as §1

O51Q1 = test system: T7, O51Q1
T7 sequence (whole entry): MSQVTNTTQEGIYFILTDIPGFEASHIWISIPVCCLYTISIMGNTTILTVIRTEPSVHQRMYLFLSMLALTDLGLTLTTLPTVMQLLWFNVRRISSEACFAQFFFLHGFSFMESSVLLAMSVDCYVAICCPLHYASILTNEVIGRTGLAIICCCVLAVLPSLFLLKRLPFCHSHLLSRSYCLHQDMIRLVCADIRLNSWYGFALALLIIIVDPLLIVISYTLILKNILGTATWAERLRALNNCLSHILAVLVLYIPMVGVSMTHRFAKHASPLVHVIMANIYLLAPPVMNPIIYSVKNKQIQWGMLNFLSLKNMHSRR
Procedure, shortened: as §1

O51T1 = test system: T8, O51T1
T8 sequence (whole entry): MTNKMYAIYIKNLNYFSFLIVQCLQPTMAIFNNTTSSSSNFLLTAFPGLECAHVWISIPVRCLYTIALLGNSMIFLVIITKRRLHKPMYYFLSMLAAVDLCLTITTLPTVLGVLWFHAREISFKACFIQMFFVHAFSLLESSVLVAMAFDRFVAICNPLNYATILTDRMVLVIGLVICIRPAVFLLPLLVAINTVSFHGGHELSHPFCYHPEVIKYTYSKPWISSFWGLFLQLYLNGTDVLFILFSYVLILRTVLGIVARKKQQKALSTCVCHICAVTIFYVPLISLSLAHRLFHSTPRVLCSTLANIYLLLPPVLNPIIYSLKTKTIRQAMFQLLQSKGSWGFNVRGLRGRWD
Procedure, shortened: as §1

O51V1 [3] = test system: T9, O51V1
T9 sequence (whole entry): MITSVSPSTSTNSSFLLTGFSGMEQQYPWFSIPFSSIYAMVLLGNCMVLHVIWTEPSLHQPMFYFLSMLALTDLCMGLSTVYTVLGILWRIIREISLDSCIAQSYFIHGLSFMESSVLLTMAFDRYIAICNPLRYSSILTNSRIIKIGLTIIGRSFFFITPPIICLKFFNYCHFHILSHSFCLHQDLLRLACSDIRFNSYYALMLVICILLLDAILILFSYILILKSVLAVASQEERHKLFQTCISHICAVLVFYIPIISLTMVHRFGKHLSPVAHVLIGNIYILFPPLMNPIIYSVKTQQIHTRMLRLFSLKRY
Procedure, shortened: as §1

O51V1 [4] = test system: T10, O51V1; remark: listed apart in the source
T10 sequence (whole entry): T9 sequence (whole entry) with F30L, W53C, R90G, R189C
Procedure, shortened: as §1
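Note: active if original authors judged signal statistically different from baseline.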

Row | SMILES | odorant receptor agonist call (O51G1) | odorant receptor agonist call (O51G2) | odorant receptor agonist call (O51J1) | odorant receptor agonist call (O51L1 [1]) | odorant receptor agonist call (O51L1 [2]) | odorant receptor agonist call (O51M1) | odorant receptor agonist call (O51Q1) | odorant receptor agonist call (O51T1) | odorant receptor agonist call (O51V1 [3]) | odorant receptor agonist call (O51V1 [4])
1 | COc1ccccc1O | inactive | inactive | inactive | inactive | inactive | active | inactive | inactive | inactive | inactive
2 | CC12C=CCC1C1CCC3=CC(=O)CCC3(C)C1CC2 (stereo not given) | inactive | inactive | inactive | active | inactive | inactive | inactive | inactive | inactive | inactive
3 | CCCCCCCC=O | inactive | inactive | inactive | inactive | inactive | inactive | inactive | inactive | inactive | inactive
4 | c1cnccn1 | inactive | inactive | inactive | inactive | inactive | inactive | inactive | inactive | inactive | inactive
5 | O=C1CCCCCCCCCCCCCCO1 | inactive | inactive | inactive | inactive | inactive | inactive | inactive | inactive | inactive | inactive
6 | C=CCSCC=C | inactive | inactive | inactive | inactive | inactive | active | inactive | inactive | inactive | inactive
7 | CC(C)(C)c1ccc(CCC=O)cc1 | inactive | inactive | inactive | inactive | inactive | inactive | inactive | inactive | inactive | active
8 | c1ccc(Oc2ccccc2)cc1 | inactive | inactive | inactive | inactive | inactive | inactive | inactive | inactive | inactive | inactive
9 | CC1CCC(C(C)C)C(O)C1 (stereo not given) | inactive | inactive | inactive | active | active | inactive | inactive | inactive | inactive | inactive
10 | CCC1(O)C2(C)CCC(C2)C1(C)C (stereo not given) | inactive | inactive | inactive | inactive | inactive | inactive | inactive | inactive | inactive | inactive
11 | CC(=O)OC(C)(C)C1CC=C(C)CC1 (stereo not given) | inactive | inactive | inactive | inactive | inactive | inactive | inactive | inactive | inactive | active
12 | CCCCCCCCCC=O | inactive | inactive | inactive | inactive | inactive | active | inactive | inactive | inactive | inactive
13 | COc1cc(C=O)ccc1O | inactive | inactive | inactive | inactive | inactive | inactive | inactive | inactive | inactive | inactive
14 | CCCCO | inactive | inactive | inactive | inactive | inactive | inactive | inactive | inactive | inactive | inactive
15 | O=CCc1ccccc1 | inactive | inactive | active | active | active | active | inactive | inactive | active | active
16 | CC(C)=CCCC(C)=CC=O | inactive | inactive | inactive | inactive | inactive | active | inactive | inactive | inactive | inactive
17 | CC(C)C=O | inactive | inactive | inactive | inactive | inactive | inactive | inactive | inactive | inactive | inactive
18 | COC(=O)c1ccccc1O | inactive | inactive | inactive | inactive | inactive | inactive | inactive | inactive | inactive | inactive
19 | CC(C)C(=O)O | inactive | inactive | inactive | inactive | inactive | inactive | inactive | inactive | inactive | inactive
20 | CC(=O)OC1CC2CCC1(C)C2(C)C (stereo not given) | inactive | inactive | inactive | inactive | inactive | inactive | inactive | inactive | inactive | inactive
21 | CCCCCCCCOC(C)=O | inactive | inactive | inactive | inactive | inactive | inactive | inactive | inactive | inactive | inactive
22 | CC(=O)C(C)=O | inactive | inactive | inactive | inactive | inactive | active | inactive | inactive | inactive | inactive
23 | CC1COCc2cc3c(cc21)C(C)(C)C(C)C3(C)C (stereo not given) | active | inactive | active | active | active | inactive | inactive | inactive | active | active
24 | CC=Cc1ccc(O)c(OC)c1 | inactive | inactive | active | inactive | inactive | active | inactive | inactive | active | active

3 compounds out of the list, sorted by formula weight, low to high:
Row | SMILES | odorant receptor agonist call (O51G1) | odorant receptor agonist call (O51G2) | odorant receptor agonist call (O51J1) | odorant receptor agonist call (O51L1 [1]) | odorant receptor agonist call (O51L1 [2]) | odorant receptor agonist call (O51M1) | odorant receptor agonist call (O51Q1) | odorant receptor agonist call (O51T1) | odorant receptor agonist call (O51V1 [3]) | odorant receptor agonist call (O51V1 [4])
14 | CCCCO | inactive | inactive | inactive | inactive | inactive | inactive | inactive | inactive | inactive | inactive
15 | O=CCc1ccccc1 | inactive | inactive | active | active | active | active | inactive | inactive | active | active
16 | CC(C)=CCCC(C)=CC=O | inactive | inactive | inactive | inactive | inactive | active | inactive | inactive | inactive | inactive
